Measurements taken from the supplement of paper PMC12823440, “Inhibitors supercharge kinase turnover through native proteolytic circuits” (Nature, 2025).
Counter-ions that a name gives are not always drawn. The list shows a part of the results. Hit calls seldom repeat between salt and free forms of one compound.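 Kinases, fused to nanoluciferase, were expressed in K562 cells; luminescence was measured every 4 h from 2 to 18 h as percent of control (DMSO = 100%, positive control = 0%). A time point is decreased if signal falls significantly (2 sigma). Hits were called by the authors by a rule that is not shown; the count of time points alone does not decide it.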

These molecules were tested against PRKCA (UniProt P17252) (assay: kinase-Nluc reporter destabilization hit call (1 = scored as downregulated) (binary); higher = compound decreases kinase abundance). Conditions: K562; 2-18 h.

| Compound | kinase-Nluc reporter destabilization hit call |
| --- | --- |
| CCS(=O)(=O)c1ncc(Cl)c(C(=O)N(Cc2ccc(Cl)cc2)Cc2ccco2)n1 (2.5 µM) | inactive: 0 |
| Nc1cc(C(F)(F)F)c(-c2cc(N3CCOCC3)nc(N3CCOCC3)n2)cn1 [Buparlisib (Hydrochloride)] (2.5 µM) | inactive: 0 |
| COc1cc(Nc2ncc(F)c(Nc3ccc4c(n3)N(COP(=O)(O)O)C(=O)C(C)(C)O4)n2)cc(OC)c1OC [Fostamatinib Disodium] (10 µM) | inactive: 0 |
| CC(C)(O)CNc1ncc(-c2ccnc(Nc3ccnc(Cl)c3)n2)c(CC2CC2)n1 (2.5 µM) | inactive: 0 |
| O=Nc1c(-c2c(O)[nH]c3ccc(I)cc23)[nH]c2ccccc12 [5-Iodo-indirubin-3'-monoxime] (10 µM) | inactive: 0 |
| Cc1cc(Nc2ncnc3ccc(NC4=NC(C)(C)CO4)cc23)ccc1Oc1ccn2ncnc2c1 [Tucatinib] (2.5 µM) | inactive: 0 |
| CCS(=O)(=O)Nc1ccc2[nH]c(O)c(C(=Nc3ccc(CN4CCCCC4)cc3)c3ccccc3)c2c1 [Hesperadin] (2.5 µM) | inactive: 0 |
| COc1cc2c(cc1OC)CN(S(=O)(=O)c1ccc(OC)c(N3CCN(C(=O)c4ccc(F)cc4C(F)(F)F)CC3)c1)CC2 (10 µM) | inactive: 0 |
| O=C([O-])c1cc2ccccc2c(Cc2c(O)c(C(=O)[O-])cc3ccccc23)c1O.[Na+].[Na+] [Pamoic acid (disodium)] (10 µM) | inactive: 0 |
| Cn1cc(-c2ccc3nnc(Sc4ccc5ncccc5c4)n3n2)cn1 (10 µM) | inactive: 0 |
| Cc1cc(O)c2c(c1)C(=O)c1cc(O)cc(O)c1C2=O [Emodin] (10 µM) | inactive: 0 |
| COc1cc2c(N3CCN(C(=O)Nc4ccc(OC(C)C)cc4)CC3)ncnc2cc1OCCCN1CCCCC1 [Tandutinib (hydrochloride)] (10 µM) | inactive: 0 |
| CCC(C)N1c2ccccc2C(=O)N(C)c2cnc(Nc3ccc(C(=O)N4CCC(N5CCN(C)CC5)CC4)cc3OC)nc21 (centres undefined) (2.5 µM) | inactive: 0 |
| COc1cc(Nc2ncc(F)c(Nc3ccc4c(n3)NC(=O)C(C)(C)O4)n2)cc(OC)c1OC (10 µM) | inactive: 0 |
| NS(=O)(=O)c1ccc(-n2nc(C(F)(F)F)cc2-c2ccc(Cl)cc2)cc1 (10 µM) | inactive: 0 |
| Cc1c(NC(=O)c2cccn(-c3ccc(F)cc3)c2=O)ccc(Oc2ccnc(NC(=O)C3CC3)c2)c1C (2 µM) | inactive: 0 |
| c1ccc(-c2[nH]ncc2-c2ccnc3ccccc23)nc1 (10 µM) | inactive: 0 |
| CN(C)CCCOc1ccc(-c2ccc3ncc4c(c3c2)n(C2CCOCC2)c(=O)n4C)cn1 (2 µM) | inactive: 0 |
| COc1cc(Nc2ncc(F)c(Nc3ccc4c(n3)NC(=O)C(C)(C)O4)n2)cc(OC)c1OC [R406 (free base)] (10 µM) | inactive: 0 |
| OCCn1cc(-c2ccc3c(c2)CC/C3=N\O)c(-c2ccncc2)n1 (10 µM) | inactive: 0 |

Exported as tab-separated lines: entries from further up
Compound	kinase-Nluc reporter destabilization hit call
O=Nc1c(-c2c(O)[nH]c3ccc(I)cc23)[nH]c2ccccc12 [5-Iodo-indirubin-3'-monoxime] (10 µM)	inactive: 0
Cn1cc(-c2ccc3nnc(Sc4ccc5ncccc5c4)n3n2)cn1 (10 µM)	inactive: 0
COc1cc(Nc2ncc(F)c(Nc3ccc4c(n3)NC(=O)C(C)(C)O4)n2)cc(OC)c1OC (10 µM)	inactive: 0

Next part.

| Compound | kinase-Nluc reporter destabilization hit call |
| --- | --- |
| C[C@@H]1CCN(C(=O)CC#N)C[C@@H]1N(C)c1ncnc2[nH]ccc12 [Tofacitinib] (10 µM) | inactive: 0 |
| C[C@@H]1CCN(C(=O)CC#N)C[C@@H]1N(C)c1ncnc2[nH]ccc12 [Tofacitinib (citrate)] (10 µM) | inactive: 0 |
| FC(F)(c1ccc2ncccc2c1)c1nnc2ccc(-c3ccncc3)nn12 (10 µM) | inactive: 0 |
| O=C1NC(=O)/C(=C\c2cccc(C(F)(F)F)c2)S1 (2.5 µM) | inactive: 0 |
| N#CCC1CCN(c2nc(Nc3ccc(N4CCC(O)CC4)cc3)c3c(=O)[nH]ncc3n2)CC1 [Gusacitinib] (10 µM) | inactive: 0 |
| Nc1ncnc2c1c(-c1cccc(OCc3ccccc3)c1)cn2C1CC(CN2CCC2)C1 (centres undefined) (2.5 µM) | inactive: 0 |
| CCNc1nc(Nc2cc(F)c(C(=O)N3CCOCC3)cc2OC)ncc1C(F)(F)F [GNE-7915 (tosylate)] (10 µM) | inactive: 0 |
| Cn1cnc2c(F)c(Nc3ccc(Br)cc3Cl)c(C(=O)NOCCO)cc21 [Selumetinib] (10 µM) | inactive: 0 |
| CCN1CCN(Cc2ccc(-c3cc4c(N[C@H](C)c5ccccc5)ncnc4[nH]3)cc2)CC1 (2.5 µM) | inactive: 0 |
| O=C(N/N=C/c1coc2ccccc2c1=O)c1cccnc1 (10 µM) | inactive: 0 |
| O=Nc1c(-c2c(O)[nH]c3ccc(F)cc23)[nH]c2ccccc12 [5'-Fluoroindirubinoxime] (10 µM) | inactive: 0 |
| CC(=O)NC1CC(n2cnc(NC(=O)Cc3ccc4ccccc4c3)c2)C1 (centres undefined) (10 µM) | inactive: 0 |
| O=C(CSC1=NCCN1)NC1CCCCCC1 [ICCB-19 (hydrochloride)] (2.5 µM) | inactive: 0 |
| N#Cc1c(C2CCNCC2)cc(-c2c(O)cccc2OCC2CC2)nc1N [ACHP (Hydrochloride)] (10 µM) | inactive: 0 |
| CCOC(=O)N1CCN(C(=O)[C@H](Cc2cccc(C(=N)N)c2)NS(=O)(=O)c2c(C(C)C)cc(C(C)C)cc2C(C)C)CC1 (10 µM) | inactive: 0 |
| CN1CCN(c2cnc3c(C4CCN(C(=O)c5ccc(OC(F)(F)F)cc5N)CC4)ncnc3c2)CC1 (10 µM) | inactive: 0 |
| Cc1[nH]c(/C=C2\C(=O)Nc3ccccc32)c(C)c1CCC(=O)O [Orantinib] (10 µM) | inactive: 0 |
| Cn1nccc1Nc1nccc(-c2ccn([C@H](CO)c3ccc(Cl)c(F)c3)c(=O)c2)n1 [Ravoxertinib hydrochloride] (10 µM) | inactive: 0 |
| CCCCCCCCCCCCC/C=C/[C@@H](O)[C@@H](N)CO [D-erythro-Sphingosine] (2.5 µM) | inactive: 0 |
